This note sets out measurements from the M2OR odorant receptor database.

Chains of the proteins cited; added tags and fusions are not shown. A line that says so, or that is headed by a name, gives the form on record, which may keep a tag or linker.
OR2W1, as listed by the source: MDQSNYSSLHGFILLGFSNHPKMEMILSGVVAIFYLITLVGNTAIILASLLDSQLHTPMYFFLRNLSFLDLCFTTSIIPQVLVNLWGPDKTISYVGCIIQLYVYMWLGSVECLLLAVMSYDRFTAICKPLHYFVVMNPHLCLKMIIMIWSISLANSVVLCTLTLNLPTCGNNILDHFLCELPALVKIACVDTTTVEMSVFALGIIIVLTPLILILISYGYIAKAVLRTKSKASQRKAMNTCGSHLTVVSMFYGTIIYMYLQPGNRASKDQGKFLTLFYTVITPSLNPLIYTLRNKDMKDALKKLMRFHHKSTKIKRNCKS

Changes are numbered by the printed parent chain. The entries are a selection whose mix differs from that of the whole data set. The calls were merged from several studies; some rest on single wells. The list shows a part of the results. This is one part of the list.

Common to all, as to settings: stereoisomer not certain
Test [1] deals with T1, OR2W1.
T1 sequence (whole entry): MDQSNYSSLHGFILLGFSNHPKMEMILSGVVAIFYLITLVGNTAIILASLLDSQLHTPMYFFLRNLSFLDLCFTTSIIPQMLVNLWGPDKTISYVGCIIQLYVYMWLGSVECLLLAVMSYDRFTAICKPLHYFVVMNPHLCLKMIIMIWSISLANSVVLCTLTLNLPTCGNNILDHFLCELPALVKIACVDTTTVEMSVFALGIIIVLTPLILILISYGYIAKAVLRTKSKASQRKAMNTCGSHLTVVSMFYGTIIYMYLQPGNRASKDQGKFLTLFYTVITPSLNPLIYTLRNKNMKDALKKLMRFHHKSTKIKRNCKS
The essentials:
(§1)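 Assay methods differ from source to source, frequently being transient luciferase assays in mammalian cell lines. For each receptor–molecule pair, the label responsive (active) applies when the original authors judged the measured signal statistically different from baseline, and non-responsive (inactive) applies otherwise.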

Test [2] deals with T2, OR2W1.
T2 sequence (whole entry): T1 sequence (whole entry) with M81V, N296D
The essentials:
as §1
This is another data set of the same source.

A further test has as its target T3, OR2W3 (Homo sapiens) (UniProt Q7Z3T1).
T3 sequence (whole entry): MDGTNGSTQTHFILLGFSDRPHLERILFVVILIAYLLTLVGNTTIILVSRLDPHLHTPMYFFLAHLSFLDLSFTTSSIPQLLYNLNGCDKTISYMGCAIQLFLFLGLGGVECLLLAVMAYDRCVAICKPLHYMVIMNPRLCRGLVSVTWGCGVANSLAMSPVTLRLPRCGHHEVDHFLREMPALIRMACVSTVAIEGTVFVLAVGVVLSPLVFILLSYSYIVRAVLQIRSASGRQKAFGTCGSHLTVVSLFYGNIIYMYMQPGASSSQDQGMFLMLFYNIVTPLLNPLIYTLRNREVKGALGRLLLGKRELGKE
The essentials:
as §1

Another test relates to T4, OR2W3.
T4 sequence (whole entry): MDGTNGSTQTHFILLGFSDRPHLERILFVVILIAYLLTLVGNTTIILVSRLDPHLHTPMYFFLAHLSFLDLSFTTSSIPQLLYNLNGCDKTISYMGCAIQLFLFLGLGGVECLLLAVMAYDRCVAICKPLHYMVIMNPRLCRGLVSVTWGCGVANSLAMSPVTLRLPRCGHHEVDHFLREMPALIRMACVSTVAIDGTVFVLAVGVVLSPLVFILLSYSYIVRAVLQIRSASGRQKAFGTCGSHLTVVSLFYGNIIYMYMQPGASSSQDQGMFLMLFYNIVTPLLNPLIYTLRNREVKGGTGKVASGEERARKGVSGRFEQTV
Put shortly: as §1

A further test concerns the target T5, OR2W5P (Homo sapiens) (UniProt A6NFC9).
T5 sequence (whole entry): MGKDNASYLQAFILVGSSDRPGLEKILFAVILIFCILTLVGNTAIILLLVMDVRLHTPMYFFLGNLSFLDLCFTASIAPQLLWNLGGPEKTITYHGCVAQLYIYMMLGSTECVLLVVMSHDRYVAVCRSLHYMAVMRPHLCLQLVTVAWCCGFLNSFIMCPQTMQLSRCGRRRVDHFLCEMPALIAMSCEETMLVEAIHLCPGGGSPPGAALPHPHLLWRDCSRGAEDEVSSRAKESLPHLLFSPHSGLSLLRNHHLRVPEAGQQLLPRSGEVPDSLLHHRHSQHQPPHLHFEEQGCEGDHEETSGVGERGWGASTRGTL
The essentials:
as §1

The subject of the next test is T6, OR2Y1.
T6 sequence (whole entry): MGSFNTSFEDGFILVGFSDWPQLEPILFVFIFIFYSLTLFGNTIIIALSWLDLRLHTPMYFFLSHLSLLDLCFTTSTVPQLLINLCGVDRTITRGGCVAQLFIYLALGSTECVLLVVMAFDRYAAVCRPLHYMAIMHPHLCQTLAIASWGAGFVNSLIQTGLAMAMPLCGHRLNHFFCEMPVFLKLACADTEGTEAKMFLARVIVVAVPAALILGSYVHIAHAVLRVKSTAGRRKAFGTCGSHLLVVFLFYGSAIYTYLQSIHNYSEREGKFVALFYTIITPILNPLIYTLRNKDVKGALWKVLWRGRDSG
Put shortly: as §1

A further test addresses T7, OR2Z1 (Homo sapiens) (UniProt Q8NG97).
T7 sequence (whole entry): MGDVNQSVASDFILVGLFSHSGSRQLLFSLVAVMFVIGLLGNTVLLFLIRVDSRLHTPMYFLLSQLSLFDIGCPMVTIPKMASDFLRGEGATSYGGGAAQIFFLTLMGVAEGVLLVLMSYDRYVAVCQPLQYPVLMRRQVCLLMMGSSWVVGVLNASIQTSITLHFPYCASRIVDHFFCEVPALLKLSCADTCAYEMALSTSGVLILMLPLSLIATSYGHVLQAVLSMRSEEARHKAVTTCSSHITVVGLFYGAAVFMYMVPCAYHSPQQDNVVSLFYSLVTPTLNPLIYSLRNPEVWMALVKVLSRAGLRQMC
The essentials:
as §1

For the next test, the target named is T8, OR3A1 (Homo sapiens) (UniProt P47881).
T8 sequence (whole entry): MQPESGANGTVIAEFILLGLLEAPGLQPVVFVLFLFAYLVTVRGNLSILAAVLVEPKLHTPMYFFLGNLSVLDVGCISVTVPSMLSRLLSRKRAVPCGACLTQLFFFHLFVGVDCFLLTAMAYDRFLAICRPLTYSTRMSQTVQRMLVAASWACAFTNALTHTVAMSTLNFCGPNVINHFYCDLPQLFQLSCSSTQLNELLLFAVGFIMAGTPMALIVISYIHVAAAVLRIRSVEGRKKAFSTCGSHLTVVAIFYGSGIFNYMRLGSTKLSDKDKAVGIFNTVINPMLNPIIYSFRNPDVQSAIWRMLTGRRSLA
Put shortly:
as §1

In the next test the target is T9, OR3A2 (Homo sapiens) (UniProt P47893).
T9 sequence (whole entry): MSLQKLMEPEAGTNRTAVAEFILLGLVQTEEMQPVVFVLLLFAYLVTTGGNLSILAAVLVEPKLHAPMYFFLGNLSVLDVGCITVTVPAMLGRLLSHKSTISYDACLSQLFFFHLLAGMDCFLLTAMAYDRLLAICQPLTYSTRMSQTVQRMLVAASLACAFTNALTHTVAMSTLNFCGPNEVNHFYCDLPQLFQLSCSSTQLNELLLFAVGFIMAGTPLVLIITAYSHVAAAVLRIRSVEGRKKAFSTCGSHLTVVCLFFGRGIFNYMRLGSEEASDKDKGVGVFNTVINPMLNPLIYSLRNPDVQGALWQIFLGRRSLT
Put shortly: as §1

The next test relates to T10, OR3A3.
T10 sequence (whole entry): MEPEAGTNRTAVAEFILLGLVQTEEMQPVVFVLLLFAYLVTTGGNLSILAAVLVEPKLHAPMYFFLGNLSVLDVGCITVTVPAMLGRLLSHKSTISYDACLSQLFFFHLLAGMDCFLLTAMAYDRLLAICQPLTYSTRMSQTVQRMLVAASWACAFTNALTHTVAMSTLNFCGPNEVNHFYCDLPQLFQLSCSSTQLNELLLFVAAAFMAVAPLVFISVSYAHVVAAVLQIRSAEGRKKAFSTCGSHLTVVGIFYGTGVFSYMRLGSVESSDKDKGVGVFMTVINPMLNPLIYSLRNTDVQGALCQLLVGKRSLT
The essentials: as §1

A further test deals with T11, OR3A4.
T11 sequence (whole entry): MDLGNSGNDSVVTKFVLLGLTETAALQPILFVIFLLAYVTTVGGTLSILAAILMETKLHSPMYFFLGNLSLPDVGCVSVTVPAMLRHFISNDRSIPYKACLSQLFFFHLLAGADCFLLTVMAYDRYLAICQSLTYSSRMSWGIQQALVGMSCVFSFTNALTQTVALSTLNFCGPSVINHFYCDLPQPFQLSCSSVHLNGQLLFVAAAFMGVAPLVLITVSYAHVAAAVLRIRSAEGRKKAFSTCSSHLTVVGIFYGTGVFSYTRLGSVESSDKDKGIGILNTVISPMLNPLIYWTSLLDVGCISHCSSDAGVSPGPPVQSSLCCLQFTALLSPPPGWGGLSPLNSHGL
The essentials: as §1

A further test addresses T12, OR4A16 (Homo sapiens) (UniProt Q8NH70).
T12 sequence (whole entry): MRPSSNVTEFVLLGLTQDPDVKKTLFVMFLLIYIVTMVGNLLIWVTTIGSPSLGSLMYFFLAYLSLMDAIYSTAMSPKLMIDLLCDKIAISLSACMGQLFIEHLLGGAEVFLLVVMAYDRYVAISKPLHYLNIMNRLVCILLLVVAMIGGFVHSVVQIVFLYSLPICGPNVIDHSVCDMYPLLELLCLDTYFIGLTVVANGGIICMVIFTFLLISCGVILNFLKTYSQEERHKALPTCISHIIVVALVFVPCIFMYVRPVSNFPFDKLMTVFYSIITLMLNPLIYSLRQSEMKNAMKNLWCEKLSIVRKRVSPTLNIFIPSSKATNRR
The essentials:
as §1

Another test addresses T13, OR4A4P (Homo sapiens) (UniProt Q8NGN8).
T13 sequence (whole entry): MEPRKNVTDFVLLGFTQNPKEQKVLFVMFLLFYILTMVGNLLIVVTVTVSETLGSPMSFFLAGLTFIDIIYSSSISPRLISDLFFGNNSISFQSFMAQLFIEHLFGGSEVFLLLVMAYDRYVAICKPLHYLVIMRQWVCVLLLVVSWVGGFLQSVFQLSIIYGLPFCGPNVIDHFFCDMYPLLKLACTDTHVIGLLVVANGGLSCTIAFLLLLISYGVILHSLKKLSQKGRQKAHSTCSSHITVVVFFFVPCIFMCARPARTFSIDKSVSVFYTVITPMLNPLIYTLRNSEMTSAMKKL
Put shortly: as §1

For another test, the target named is T14, OR4A5 (Homo sapiens) (UniProt Q8NH83).
T14 sequence (whole entry): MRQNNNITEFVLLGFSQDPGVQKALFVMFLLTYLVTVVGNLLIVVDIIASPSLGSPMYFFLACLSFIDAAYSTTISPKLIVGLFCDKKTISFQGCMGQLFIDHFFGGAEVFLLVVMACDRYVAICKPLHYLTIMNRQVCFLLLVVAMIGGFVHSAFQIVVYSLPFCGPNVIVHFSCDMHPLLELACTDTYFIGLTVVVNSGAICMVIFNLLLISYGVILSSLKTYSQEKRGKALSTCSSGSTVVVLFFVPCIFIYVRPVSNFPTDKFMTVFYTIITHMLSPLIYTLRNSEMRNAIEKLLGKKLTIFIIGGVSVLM
The essentials: as §1

The subject of another test is T15, OR4A5.
T15 sequence (whole entry): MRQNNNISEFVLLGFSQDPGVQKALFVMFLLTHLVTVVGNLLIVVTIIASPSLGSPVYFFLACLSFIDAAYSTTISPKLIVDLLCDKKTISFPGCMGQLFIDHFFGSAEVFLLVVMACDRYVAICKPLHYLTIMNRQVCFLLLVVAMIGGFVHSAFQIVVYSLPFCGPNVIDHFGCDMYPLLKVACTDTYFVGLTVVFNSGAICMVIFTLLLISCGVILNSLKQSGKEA
Put shortly:
as §1

For the next test, the target named is T16, OR4B1 (Homo sapiens) (UniProt Q8NGF8).
T16 sequence (whole entry): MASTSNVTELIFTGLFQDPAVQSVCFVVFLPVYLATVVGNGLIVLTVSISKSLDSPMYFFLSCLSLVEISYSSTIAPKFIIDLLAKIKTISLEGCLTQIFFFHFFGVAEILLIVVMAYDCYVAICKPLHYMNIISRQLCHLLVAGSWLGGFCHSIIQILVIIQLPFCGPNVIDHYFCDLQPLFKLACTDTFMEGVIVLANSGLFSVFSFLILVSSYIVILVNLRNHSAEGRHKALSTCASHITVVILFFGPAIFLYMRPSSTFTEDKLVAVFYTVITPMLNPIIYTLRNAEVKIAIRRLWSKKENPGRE
The essentials:
as §1

In the next test the target is T17, OR4C11 (Homo sapiens) (UniProt Q6IEV9).
T17 sequence (whole entry): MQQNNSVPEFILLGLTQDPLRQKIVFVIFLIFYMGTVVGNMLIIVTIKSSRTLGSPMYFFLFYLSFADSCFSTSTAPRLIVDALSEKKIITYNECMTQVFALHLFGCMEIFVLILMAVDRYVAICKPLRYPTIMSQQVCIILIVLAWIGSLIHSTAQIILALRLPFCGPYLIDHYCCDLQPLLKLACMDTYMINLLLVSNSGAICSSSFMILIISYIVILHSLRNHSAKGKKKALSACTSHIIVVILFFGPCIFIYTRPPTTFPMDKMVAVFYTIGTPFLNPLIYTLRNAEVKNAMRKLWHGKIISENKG
The essentials:
as §1

Consider `C=C(C)C1CC=C(C)C(=O)C1` (stereo not drawn), for which the “odorant receptor agonist call” value in the test on OR2W1 [1] and with OR2W1 [2] was “active” each time. Further, the “odorant receptor agonist call” value in the test with OR2W3 (Homo sapiens) is “inactive”.

`CC12C=CCC1C1CCC3=CC(=O)CCC3(C)C1CC2` (stereo not drawn): the “odorant receptor agonist call” value in the test with OR2W1 [1], with OR2W3, in the test with OR2W5P (Homo sapiens), with OR2Z1 (Homo sapiens), with OR3A1 (Homo sapiens) and in the test on OR3A3 was “inactive” throughout. In addition, the “odorant receptor agonist call” value in the test with OR3A4, with OR4A16 (Homo sapiens), with OR4A4P (Homo sapiens), in the test with OR4A5 (Homo sapiens), with OR4A5 and with OR4B1 (Homo sapiens) was “inactive” in each case. Besides, the “odorant receptor agonist call” value with OR4C11 (Homo sapiens) is “inactive”. The “odorant receptor agonist call” value in the test on OR2Y1 and in the test with OR3A2 (Homo sapiens) was “active” in each case.

Take `CCCCCCCCOC(C)=O`: the “odorant receptor agonist call” value in the test on OR2W1 [1], in the test with OR2W3, with OR2W5P (Homo sapiens), with OR2Y1, with OR2Z1 (Homo sapiens) and with OR3A1 (Homo sapiens) was “inactive” throughout. In addition, the “odorant receptor agonist call” value in the test with OR3A2 (Homo sapiens), in the test on OR3A3, in the test with OR3A4, with OR4A16 (Homo sapiens), with OR4A4P (Homo sapiens) and with OR4A5 (Homo sapiens) was “inactive” each time. Besides, the “odorant receptor agonist call” value with OR4A5, with OR4B1 (Homo sapiens) and with OR4C11 (Homo sapiens) was “inactive” throughout.
